Some of the results follow. Shown are side measurements of this screen, not its main read-out; they come without a call. The list favours compounds with an active or inconclusive main result. The note in brackets gives the kind of curve behind each potency; many fits are weak.

A short description of this experiment: IkB Signaling. To be noted: ABC-DLBCL IkBa-CBG/CBR dual luciferase ratio (green luciferase fused to IkBa over red control in OCI-Ly3 lymphoma cells), 4 h; measured here: control luc red channel unless noted. A digest of the protocol:
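Luminescence ratio of IκBα-fused green versus native red beetle luciferase in OCI-Ly3 cells, 4 h post-doxycycline with compound; red signal alone, scaled from basal (0%) to zero light (-100%), flagged nonspecific or cytotoxic effects.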
Consider `CCc1c(C)c2ccc(O)c(CN3CCN(c4ccccc4)CC3)c2oc1=O`, for which the AC50 was 6.31 µM [rising, partial curve].

Turning to `CCN1CCN(c2cc(C)c3cc(NC(=O)c4ccccc4F)ccc3n2)CC1`, the AC50 is 15.8 µM [falling, single point].

Regarding `CC(C)c1ccc2oc(=O)cc(CN3CCN(c4ccc(F)cc4)CC3)c2c1`, the AC50 was 15.8 µM [falling, partial curve].

With `Cc1nn(Cc2ccccc2Cl)c(C)c1C(=O)N1CCN(c2ccccc2)CC1`, the AC50 was 31.6 µM [falling, partial curve].

Consider `Cc1cncn1CCc1nc2c3ccccc3nc(SCC(=O)Nc3ccccc3F)n2n1`, for which the half-maximal activity concentration (AC50) was 20 µM [rising, partial curve].

Take `O=C(c1ccc(CS(=O)(=O)c2c(Cl)cccc2Cl)o1)N1CCN(c2ccccc2)CC1`: the AC50 is 25.1 µM [falling, partial curve].

As to `Cc1ccc(-n2c(SCC(N)=O)nc3c([nH]c4ccccc43)c2=O)cc1`, the AC50 is 1.58 µM [rising, full curve, poor fit].

In the case of `Cc1ccc(Nc2nc(N3CCOCC3)c3ccccc3n2)cc1`, the AC50 was 39.8 µM [falling, single point].

As for `COC(=O)c1sc(NC(=O)c2ccoc2C)nc1C`, the AC50 is 15.8 µM [falling, partial curve].

As for `Cc1ccc(Cl)cc1N1CCN(c2ncnc3onc(-c4ccc(F)cc4)c23)CC1`, the AC50 was 31.6 µM [falling, single point].

As to `CCOC(=O)N1CCN(C(=O)CN(c2cc(C)ccc2OC)S(=O)(=O)c2ccc(C)cc2)CC1`, the AC50 was 10 µM [falling, partial curve].

As to `Cc1ccc(-c2nnc(Nc3cccc(C(F)(F)F)c3)c3ccccc23)cc1S(=O)(=O)N1CCOCC1`, the AC50 is 5.01 µM [falling, full curve].

As for `CC(C)(C)c1ccc(-c2noc(CCC(=O)Nc3cccc(Cl)c3)n2)cc1`, the AC50 is 3.16 µM [falling, full curve].

As for `Cc1ccc(S(=O)(=O)Cn2nnnc2CN2CCCC3(CCCCC3)C2)cc1`, the concentration at half-maximal activity (AC50) was 25.1 µM [falling, partial curve].

Consider `CCOc1ccccc1CNC(=O)C1CCCN(S(=O)(=O)c2ccc3c(ccn3C)c2)C1` (stereo not given), for which the half-maximal activity concentration (AC50) was 31.6 µM [falling, single point].

`Cc1cccn2cc(CCNC(=O)c3ccc(Br)o3)nc12`: the AC50 was 15.8 µM [falling, partial curve].

For `O=C(c1cc(-n2cnnc2)ccc1Cl)N1CCN(c2nc(-c3ccccc3)cs2)CC1`, the AC50 was 10 µM [falling, partial curve].

`COc1ccc(OC)c(S(=O)(=O)NCCc2csc3nc(-c4ccccc4)nn23)c1`: the AC50 is 31.6 µM [falling, single point].

Consider `Cc1cccc(N2CCN(C(=O)c3ccc4c(c3)c(C)c(C)n4C)CC2C)c1` (stereo not given), for which the AC50 was 3.16 µM [rising, partial curve] [measured here: IkB-luc green channel].

On to `CCc1ccc(CNC(=O)CN2C(=O)CCn3nc(-c4cn(C)c5ccccc45)cc32)cc1`, for which the AC50 is 10 µM [falling, partial curve].

`COc1ccccc1-c1nnc(SCC(=O)c2ccc(F)cc2)n1-c1ccccc1`: the AC50 is 31.6 µM [falling, single point].

Consider `Cn1nnnc1SCCNCc1ccc(OCc2ccc(Cl)cc2)cc1`, for which the AC50 was 25.1 µM [falling, single point].

On to `O=C(Nc1cccc(Cl)c1)C1CCCN1S(=O)(=O)c1cccc2cccnc12` (stereo not given), for which the AC50 is 20 µM [falling, partial curve].

Regarding `Cc1ccc(CN2C(=O)c3ccccc3Sc3ccc(C(=O)NCCCN4CCOCC4)cc32)cc1`, the AC50 was 5.01 µM [falling, partial curve].

For the compound `Cc1ccc2nc(Nc3ccc4[nH]c(=O)[nH]c4c3)c(-n3nc(C)cc3C)nc2c1`, the AC50 is 158 nM [falling, full curve] [measured here: IkB-luc green channel].

Regarding `O=C(COC(=O)C1c2ccccc2Oc2ccccc21)Nc1ccc2c(c1)OCO2`, the AC50 is 15.8 µM [falling, partial curve].

Consider `Cc1oc(-c2cccc(Cl)c2)nc1CN1CCC(C(=O)NCCc2ccc(Cl)cc2)CC1`, for which the AC50 is 20 µM [falling, partial curve].

Take `CCC[C@@H]1O[C@@H]2C[C@@H]3[C@H]4CCC5=CC(=O)C=C[C@@]5(C)[C@H]4[C@H](O)C[C@@]3(C)[C@@]2(C(=O)CO)O1`: the AC50 was 501 nM [rising, full curve] [measured here: IkB-luc green channel].

`CCOc1ccc(-c2nnn(CCC(=O)O)n2)cc1OC`: the AC50 was 20 µM [falling, partial curve].

As for `COc1ccc(C(=O)Nc2ccc(N3CCOCC3)c(C(F)(F)F)c2)cc1OC`, the AC50 is 31.6 µM [falling, partial curve].

In the case of `CCc1cccc(NC(=O)C(CC(C)C)NS(=O)(=O)c2ccc3c(c2)oc(=O)n3C)c1` (stereo not given), the AC50 was 12.6 µM [falling, partial curve].

Regarding `COc1ccccc1CN1CCC(CNC(=O)c2cnn(-c3ccc(C)c(C)c3)c2C2CCN(C(=O)OC(C)(C)C)CC2)CC1`, the AC50 was 10 µM [falling, partial curve, poor fit].

`COC(=O)C1=C(C)N(C)C(C)=C(C(=O)OC)C1c1ccc(C(=O)OC)cc1`: the AC50 was 15.8 µM [rising, partial curve] [measured here: IkB-luc green channel].

Take `COc1ccccc1NC(=O)c1cc(C2CC2)nc2c1c(C)nn2-c1ccc(C)cc1`: the AC50 is 6.31 µM [falling, partial curve].

For `O=c1c(N2CCc3ccccc3C2)csc2ccc(Br)cc12`, the AC50 is 12.6 µM [falling, partial curve].

Turning to `COc1ccccc1Cc1nc2ccccc2nc1SCC(=O)N1CCC(C)CC1`, the half-maximal activity concentration (AC50) was 31.6 µM [falling, single point].

Regarding `Cc1nc2c(ccc3nc(NC(=O)c4ccc(S(=O)(=O)N(C)C)cc4)sc32)s1`, the AC50 is 12.6 µM [falling, partial curve].

On to `Cc1ccc2nc(SCC(=O)Nc3ccc(C#N)cc3)[nH]c2c1`, for which the AC50 was 25.1 µM [falling, single point].

As for `Cc1c(C(=O)N2CCC(C)CC2)c(S(=O)(=O)N2CCN(c3cccc(Cl)c3)CC2)c(C)n1C`, the AC50 is 31.6 µM [falling, partial curve].

Consider `COc1ccc(S(=O)(=O)c2cn(Cc3ccccc3)c3cc(F)c(F)cc3c2=O)cc1`, for which the AC50 is 25.1 µM [falling, single point].

For `CCOc1ccc(C(=O)NCc2ccc3c(c2)CCN3C(=O)c2ccc(C)cc2)cc1OCC`, the AC50 was 6.31 µM [rising, partial curve].

For the compound `COc1ccccc1NC(=O)c1cc(S(=O)(=O)N2CCc3ccccc32)ccc1F`, the AC50 is 12.6 µM [falling, partial curve].

On to `COC(=O)c1cccc(-n2nnnc2SCC(=O)Nc2nc3c(s2)CCCC3)c1`, for which the AC50 was 20 µM [falling, partial curve].

Take `C=Cc1ccc(Cn2c(=O)cc(C)c3c(C)nn(C)c32)cc1`: the concentration at half-maximal activity (AC50) is 0.0794 µM [rising, full curve, poor fit].

In the case of `Cc1ccccc1NS(=O)(=O)c1ccc(OCC(=O)NCc2ccco2)cc1`, the AC50 was 10 µM [falling, partial curve].

Regarding `COc1cc(-c2nnc(SCC(=O)Oc3ccccc3Cl)o2)cc(OC)c1OC`, the AC50 is 39.8 µM [falling, single point].

`COc1ccc(S(=O)(=O)c2cn(Cc3ccccc3)c3ccc(OC)cc3c2=O)cc1`: the AC50 is 39.8 µM [falling, single point].

On to `CN(C)c1ccc(C(CNS(=O)(=O)c2ccc(F)cc2)N2CCc3ccccc32)cc1` (stereo not given), for which the half-maximal activity concentration (AC50) was 10 µM [falling, partial curve, poor fit].

`CCn1c(SCc2ccccc2Cl)nc(=O)c2c(C(=O)OC)cc(C3CC3)nc21`: the AC50 was 31.6 µM [falling, partial curve].

In the case of `Cc1cc(C)c2c(-n3cccc3)c(C(=O)NCCCN3CCCCC3C)sc2n1` (stereo not given), the AC50 is 10 µM [falling, partial curve].

In the case of `COC(=O)Cc1c(C)nc2nc(-c3ccc(OC)cc3)[nH]n2c1=O`, the AC50 is 3.98 µM [falling, partial curve].

For `Cc1ccc(S(=O)(=O)N(CC(=O)NCc2ccco2)Cc2ccccc2F)cc1`, the AC50 is 39.8 µM [falling, partial curve].

For the compound `CC(=O)Nc1nonc1-c1nnc(SCc2ccc(Cl)cc2)n1C`, the AC50 was 12.6 µM [falling, single point].

On to `COc1ccc2[nH]c(=O)c(CN(CC3CCCO3)C(=O)Nc3ccccc3OC)cc2c1` (stereo not given), for which the half-maximal activity concentration (AC50) was 10 µM [falling, partial curve].

On to `Cc1ccc2[nH]c(=O)c(CN(Cc3cccs3)Cc3nnnn3Cc3ccccc3)cc2c1`, for which the AC50 was 3.16 µM [falling, partial curve].

`Cc1ccc(-c2noc(-c3ccc(N4CCCCC4)c([N+](=O)[O-])c3)n2)cc1`: the AC50 was 0.316 µM [rising, full curve].

Consider `O=C(Nc1cc(NC(=O)c2ccccc2Cl)ccc1Cl)c1ccccc1`, for which the AC50 was 25.1 µM [falling, partial curve].

For the compound `CCOc1ccccc1CNC(=O)c1ccc2nc(Cc3ccc(OC)cc3)oc2c1`, the AC50 is 39.8 µM [falling, single point].

Consider `O=C(O)CCCNc1cc(N2CCC3(CC2)OCCO3)c2noc3c2c1C(=O)c1ccccc1-3`, for which the AC50 was 6.31 µM [falling, partial curve].

Turning to `CCOc1ccccc1NC(=O)N1CCCC(c2nc3c(nnn3Cc3ccc(C)cc3)c(=O)[nH]2)C1` (stereo not given), the AC50 is 39.8 µM [falling, single point].

Usually AC50 stands for the midpoint of the concentration-response curve, whichever way the signal moves.

These data come from PubChem BioAssay AID445 (National Center for Advancing Translational Sciences (NCATS), 2006).
